Measurements: PMC7024302, “Ultrashort Cationic Lipopeptides–Effect of N-Terminal Amino Acid and Fatty Acid Type on Antimicrobial Activity and Hemolysis” (Molecules, 2020)
Residues, ends and D or L forms follow the SMILES beside them.

What was measured:
K. aerogenes ATCC 13048 = type: cell-based, Klebsiella aerogenes; conditions: SI = HC50/MIC
Excerpt: (§1) The Acinetobacter baumannii ATCC BAA-1605, Candida albicans ATCC 10231, Enterococcus faecium ATCC 700221, Klebsiella aerogenes ATCC 13048 (previously known as Enterobacter aerogenes), Klebsiella pneumoniae ATCC 700603, Pseudomonas aeruginosa ATCC 9027, Staphylococcus aureus ATCC 25923 and MRSA ATCC 33591, were acquired from the American Type Culture Collection (ATCC). Before running the tests, beads with cryo-protected microorganisms were transferred into fresh MHB (BioMaxima, Lublin, Poland) for bacteria or RPMI-1640 for fungi and incubated for 24 h at 37 °C. Then, the culture was seeded on the Mueller-Hinton agar (MHA) plates (BioMaxima, Lublin, Poland) for bacteria or Sabouraud dextrose agar (SDA) plates (BioMaxima, Lublin, Poland) for fungi and incubated as just mentioned. Cell densities for all assays were adjusted spectrophotometrically (Multiskan™ GO Microplate Spectrophotometer, Thermo Fisher Scientific, Vantaa, Finland) at 600 nm for bacteria and at 530 nm for fungi.
(§2) The MICs were determined by broth microdilution method according to the Clinical and Laboratory Standard Institute guidelines. For this purpose initial inoculums of bacteria (5 × 10^5 CFU/mL) in MHB (BioMaxima, Lublin, Poland) and fungi (2 × 10^3 CFU/mL) in RPMI-1640 with 2% D-glucose (Merck, Darmstadt, Germany) prepared with MOPS (pH 7.0 ± 0.1 at 25 °C; Merck, Darmstadt, Germany) were exposed to the ranging concentration of lipopeptides (0.5–256 µg/mL) and incubated at 37 °C for 18 h and 24 h respectively. The experiments were conducted on 96-well microtiter polystyrene plates (Kartell, Italy). The MIC was taken as the lowest peptide concentration at which a noticeable growth of microorganisms was inhibited. All experiments were conducted in triplicate.

E. faecium ATCC 700221 = type: cell-based, Enterococcus faecium; conditions: SI = HC50/MIC
Excerpt: as §1, §2

Row | Compound | SI (E2) (K. aerogenes ATCC 13048) | SI (E1) (E. faecium ATCC 700221)
1 | CCCCCCCCCCCC(=O)N[C@@H](Cc1c[nH]c2ccccc12)C(=O)N[C@@H](CCCNC(=N)N)C(=O)N[C@@H](CCCNC(=N)N)C(N)=O [compound 97, C12-WRR-NH2] (HELM PEPTIDE1{[CCCCCCCCCCCC(=O)[*:2]].W.R.R.[am]}$$$$V2.0) | 0.17 | 5.30
2 | CCCCCCCCCCCCCC(=O)N[C@@H](CCSC)C(=O)N[C@@H](CCCNC(=N)N)C(=O)N[C@@H](CCCNC(=N)N)C(N)=O [compound 50, C14-MRR-NH2] (HELM PEPTIDE1{[CCCCCCCCCCCCCC(=O)[*:2]].M.R.R.[am]}$$$$V2.0) | 0.27 | 4.39
3 | CCCCCCCCCCCC(=O)N[C@H](C(=O)N[C@@H](CCCNC(=N)N)C(=O)N[C@@H](CCCNC(=N)N)C(N)=O)[C@@H](C)CC [compound 37, C12-IRR-NH2] (HELM PEPTIDE1{[CCCCCCCCCCCC(=O)[*:2]].I.R.R.[am]}$$$$V2.0) | 0.47 | 15.05
4 | CCCCCCCCCCCCCCCC(=O)N[C@@H](CCCNC(=N)N)C(=O)N[C@@H](CCCNC(=N)N)C(N)=O [compound 5, C16-RR-NH2, reference compound] (HELM PEPTIDE1{[CCCCCCCCCCCCCCCC(=O)[*:2]].R.R.[am]}$$$$V2.0) | 0.72 | 2.86
5 | CCCCCCCCCCCCCC(=O)NCC(=O)N[C@@H](CCCNC(=N)N)C(=O)N[C@@H](CCCNC(=N)N)C(N)=O [compound 30, C14-GRR-NH2] | 0.12 | 3.99
6 | CCCCCCCCCCCCCC(=O)N[C@@H](C)C(=O)N[C@@H](CCCNC(=N)N)C(=O)N[C@@H](CCCNC(=N)N)C(N)=O [compound 10, C14-ARR-NH2] (HELM PEPTIDE1{[CCCCCCCCCCCCCC(=O)[*:2]].A.R.R.[am]}$$$$V2.0) | 0.16 | 5.14
7 | CCCCCCCCCCCCCC(=O)N[C@@H](CC(C)C)C(=O)N[C@@H](CCCNC(=N)N)C(=O)N[C@@H](CCCNC(=N)N)C(N)=O [compound 46, C14-LRR-NH2] (HELM PEPTIDE1{[CCCCCCCCCCCCCC(=O)[*:2]].L.R.R.[am]}$$$$V2.0) | 0.23 | 3.69
8 | CCCCCCCCCCCCCC(=O)N[C@@H](CCC(N)=O)C(=O)N[C@@H](CCCNC(=N)N)C(=O)N[C@@H](CCCNC(=N)N)C(N)=O [compound 78, C14-QRR-NH2] (HELM PEPTIDE1{[CCCCCCCCCCCCCC(=O)[*:2]].Q.R.R.[am]}$$$$V2.0) | 0.28 | 4.52
9 | CCCCCCCCCCCC(=O)N[C@@H](CCCNC(=N)N)C(=O)N[C@@H](CCCNC(=N)N)C(N)=O [compound 3, C12-RR-NH2, reference compound] (HELM PEPTIDE1{[CCCCCCCCCCCC(=O)[*:2]].R.R.[am]}$$$$V2.0) |  | > 8
10 | CCCCCCCCCC(=O)N[C@@H](Cc1ccccc1)C(=O)N[C@@H](CCCNC(=N)N)C(=O)N[C@@H](CCCNC(=N)N)C(N)=O [compound 24, C10-FRR-NH2] (HELM PEPTIDE1{[CCCCCCCCCC(=O)[*:2]].F.R.R.[am]}$$$$V2.0) |  | > 8
11 | CCCCCCCCCCCC(=O)N[C@@H](CCCNC(=N)N)C(=O)N[C@@H](CCCNC(=N)N)C(=O)N[C@@H](CCCNC(=N)N)C(N)=O [compound 81, C12-RRR-NH2] (HELM PEPTIDE1{[CCCCCCCCCCCC(=O)[*:2]].R.R.R.[am]}$$$$V2.0) |  | 16 (>16)
12 | CCCCCCCCCCCCCC(=O)N[C@@H](CC[S+](C)[O-])C(=O)N[C@@H](CCCNC(=N)N)C(=O)N[C@@H](CCCNC(=N)N)C(N)=O (stereo partly drawn) [compound 54, C14-M(O)RR-NH2] (HELM PEPTIDE1{[CCCCCCCCCCCCCC(=O)[*:2]].[CS(=O)CC[C@H](N[*:1])C(=O)[*:2]].R.R.[am]}$$$$V2.0) |  | 7.27
13 | CCCCCCCCCC(=O)N[C@@H](Cc1c[nH]c2ccccc12)C(=O)N[C@@H](CCCNC(=N)N)C(=O)N[C@@H](CCCNC(=N)N)C(N)=O [compound 96, C10-WRR-NH2] (HELM PEPTIDE1{[CCCCCCCCCC(=O)[*:2]].W.R.R.[am]}$$$$V2.0) |  | 16 (>16)
